The series is described as follows: self-splicing fitness, log relative to wild type (ln ratio); higher = more splicing; Tetrahymena group I intron in knt gene, E. coli kanamycin selection, DiMSum; sequences stand for … in CUCUCU…GGAGGGAAAAGUUAUCAGGCAUGCACCUGGUAGCUAGUCUUUAAACCAAUAGAUUGCAUCGGUUUAAAAGGCAAGACCGUCAAAUUGCGGGAAAGGGGUCAACAGCCGUUCAGUACCAAGUCUCAGGGGAAACUUUGAGAUGGCCUUGCAAAGGGUAUGGUAAUAAGCUGACGGACAUGGUCCUAACCACGCAGCCAAGUCCUAAGUCAACAGAUCUUCUGUUGAUAUGGAUGCAGUUCACAGACUAAAUGUCGGUCGGGGAAGAUGUAUUCUUCUCAUAAGAUAUAGUCGGACCUCUCCUUAAUGGGAGCUAGCGGAUGAAGUGAUGCAACACUGGAGCCGCUGGGAACUAAUUUGUAUGCGAAAGUAUAUUGAUUAGUUUUGGAGUACUCGUGGUCG
In a few lines: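 DiMSum derived fitness as the error-weighted combination of fold changes across replicates, kanamycin versus no kanamycin, normalised to wild type. E. coli BL21(DE3) held the library, which randomised all eight P1ex-region intron nucleotides within the knt kanamycin-resistance gene on pET-22b(+). Six replicate transformations grew overnight at 37°C or 30°C on LB agar with or without 25 μg/mL kanamycin, also containing 100 μg/mL carbenicillin, 50 μM IPTG and 0.2% rhamnose, and pooled colonies were amplicon-sequenced on an Illumina HiSeq 2500.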

± gives the uncertainty stated by the source. Many entries were measured with a wide error.

For CCCAAGCAAUAUUACGCCCU, under “37 °C”, the “self-splicing fitness (ln)” value is -4.22 ± 0.59. As to GAGUAGCAAUAUUACGCGAA, the “self-splicing fitness (ln)” value (30 °C) was -1.9 ± 0.57.

As for GGGAAGCAAUAUUACGGUCC, the “self-splicing fitness (ln)” value (30 °C) was -1.23 ± 0.91 and the “self-splicing fitness (ln)” value (37 °C) was -0.44 ± 1.4. For UUAUAGCAAUAUUACGUCUU the same measures were -3.35 ± 0.3 and -0.948 ± 0.17.

Regarding UUAUAGCAAUAUUACGUCAC, the “self-splicing fitness (ln)” value was -2.79 ± 0.68 (30 °C) and -2.08 ± 1.1 (37 °C). For CGUGAGCAAUAUUACGUCAC, the “self-splicing fitness (ln)” value (37 °C) is -2.18 ± 1.1.

For CUUUAGCAAUAUUACGGCUU, the “self-splicing fitness (ln)” value (37 °C) is -2 ± 0.67.

For the sequence AGGAAGCAAUAUUACGAGAC, the “self-splicing fitness (ln)” value by setting is: (30 °C) -2.25 ± 1.1; (37 °C) -1.54 ± 0.71. On to CCUAAGCAAUAUUACGGAAA, for which the “self-splicing fitness (ln)” value (30 °C) is -3.81 ± 0.53. With CCGUAGCAAUAUUACGACUC, the “self-splicing fitness (ln)” value was -2.62 ± 0.62 (30 °C) and -2.09 ± 0.56 (37 °C). Regarding UCCAAGCAAUAUUACGUAGC, the “self-splicing fitness (ln)” value runs as follows: (30 °C) -3.38 ± 0.14; (37 °C) -1.38 ± 0.11. In the case of CGGGAGCAAUAUUACGCAAC, the “self-splicing fitness (ln)” value (37 °C) was -2.78 ± 0.77. With CUUAAGCAAUAUUACGGCUU, the “self-splicing fitness (ln)” value reads like this: (30 °C) -5.16 ± 0.71; (37 °C) -3.9 ± 0.72. For CCUCAGCAAUAUUACGCCCU the same measures were -2.29 ± 0.24 and -2.73 ± 0.48. Turning to GUAAAGCAAUAUUACGCAAC, the “self-splicing fitness (ln)” value (30 °C) was -1.85 ± 0.65. For the sequence UAAUAGCAAUAUUACGUCAU, the “self-splicing fitness (ln)” value was -4 ± 0.28 (30 °C) and -2.52 ± 0.22 (37 °C). Take CUCGAGCAAUAUUACGCCGU: under “30 °C”, the “self-splicing fitness (ln)” value is -2.76 ± 0.63. Same read-out and setting: the result for AGCAAGCAAUAUUACGUCGC reads -4.11 ± 0.59. Regarding CAGGAGCAAUAUUACGCGGA, the “self-splicing fitness (ln)” value (37 °C) was -4.43 ± 0.59. On to AUGGAGCAAUAUUACGGGGU, for which the “self-splicing fitness (ln)” value (30 °C) was -3.13 ± 0.61. For GAGGAGCAAUAUUACGGAAU, where the note is “37 °C”, the “self-splicing fitness (ln)” value was -2.97 ± 0.54.

Take UUAGAGCAAUAUUACGUAGC: for the setting “37 °C”, the “self-splicing fitness (ln)” value was -1.41 ± 0.51. On to CAUUAGCAAUAUUACGACCC, for which the “self-splicing fitness (ln)” value was -3.85 ± 0.74 (30 °C) and -1.29 ± 0.69 (37 °C).

As for UGCGAGCAAUAUUACGGGGC, for the setting “37 °C”, the “self-splicing fitness (ln)” value is -3.47 ± 1.

Consider GGGGAGCAAUAUUACGCGAA, for which the “self-splicing fitness (ln)” value (30 °C) is -2.75 ± 0.4 and the “self-splicing fitness (ln)” value (37 °C) worked out at 0.457 ± 0.31. Consider CGUAAGCAAUAUUACGCACC, for which, under “30 °C”, the “self-splicing fitness (ln)” value is -2.44 ± 0.6. On to CGUCAGCAAUAUUACGGUUU, for which the “self-splicing fitness (ln)” value reads like this: (30 °C) -2.39 ± 0.098; (37 °C) -1.97 ± 0.097. Turning to CCCGAGCAAUAUUACGGCCC, the “self-splicing fitness (ln)” value (30 °C) was -4.33 ± 0.73 and the “self-splicing fitness (ln)” value (37 °C) is -2.57 ± 1.1. For the sequence AGUUAGCAAUAUUACGGAAC, the “self-splicing fitness (ln)” value (30 °C) is -3.92 ± 0.6. Regarding GUGGAGCAAUAUUACGAUAG, the “self-splicing fitness (ln)” value runs as follows: (30 °C) -4.66 ± 1; (37 °C) -1.71 ± 0.52. For ACGGAGCAAUAUUACGCCGC the same measures were -3.8 ± 0.75 and -1.69 ± 0.62. For the sequence UUCGAGCAAUAUUACGAUUG, the “self-splicing fitness (ln)” value (30 °C) was -3.92 ± 0.73.

AGUGAGCAAUAUUACGACGU: the “self-splicing fitness (ln)” value is -0.966 ± 0.059 (30 °C) and -0.385 ± 0.066 (37 °C). Turning to GCGGAGCAAUAUUACGUAUC, the “self-splicing fitness (ln)” value (37 °C) was -2.07 ± 0.67. For the sequence ACACAGCAAUAUUACGUGGG, the “self-splicing fitness (ln)” value by setting is: (30 °C) -3.5 ± 0.098; (37 °C) -1.88 ± 0.087. For GGCCAGCAAUAUUACGAUGG the same measures were -4.28 ± 0.33 and -2.67 ± 0.33. For UGCAAGCAAUAUUACGCCAA the same measures were -1.67 ± 0.34 and -0.657 ± 0.19. For AAUGAGCAAUAUUACGGCAA the same measures were -2.55 ± 0.34 and -1.85 ± 0.35. For UCUUAGCAAUAUUACGUCGC, the “self-splicing fitness (ln)” value was -2.56 ± 0.77 (30 °C) and -2.67 ± 1.1 (37 °C). With CCGGAGCAAUAUUACGAGGA, for the setting “30 °C”, the “self-splicing fitness (ln)” value was -4.29 ± 1. On the same count and under the same terms, the value for GACAAGCAAUAUUACGCCAC was -4.15 ± 0.51; that for GUCGAGCAAUAUUACGAAAU was -0.828 ± 1. As to GCGGAGCAAUAUUACGGAAA, the “self-splicing fitness (ln)” value is, setting by setting: (30 °C) -2.44 ± 0.78; (37 °C) -1.54 ± 0.46. Consider UUCAAGCAAUAUUACGCUCC, for which the “self-splicing fitness (ln)” value was -1.54 ± 0.16 (30 °C) and -1.86 ± 0.24 (37 °C). For GCUCAGCAAUAUUACGCUGC the same measures were -3.88 ± 0.72 and -1.99 ± 0.51.

These data come from the supplement of paper PMC7877785.
